We go through one substance from publication PMC6481712 (2018).

The nature of the data set: general procedure: Fmoc solid-phase peptide synthesis; Wang resin (0.1 mmol/g loading); HBTU/HOBt/DIPEA (DMAP for first residue). The following applies: whole synthesis, scale of the general procedure 0.2 mmol.

Consider IKVAV hybrid β-peptide, for which the outcome is reported as “the syntheses of these molecules failed as the N-terminal β-tripeptide portion could not be attached”.
